The data set can be described thus: general procedure: Fmoc solid-phase peptide synthesis; 2-chlorotrityl chloride (2-CTC) resin. As to conditions: conjugation step.

Strings that start with PEPTIDE1 are HELM notation: dots part the residues, brackets hold end groups and non-standard residues.

The substance “PEPTIDE1{P.D.L.[Lys(ct)].[PheOdzEt]}$PEPTIDE1,PEPTIDE1,1:R1-5:R2$$$V2.0” came in with a conjugation yield of 39.3%.

Source of the values: article PMC10989506 (RSC Chemical Biology, 2024).
